From the supplement of paper PMC9135407
Where “and” joins values, the source holds several entries; their conditions need not be identical. Equal values may be shown once. Where a name gives a salt, the structure may show the parent alone. ± gives the standard deviation of the averaged measurements. This is one part of the list. Plates or batches differ in their baseline, so values are only roughly comparable.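 Culture-activated primary human stellate myofibroblasts, where regained lipid droplets signal inactivation. Value: share of Hoechst-counted cells above a per-plate Bodipy cutoff, in duplicate wells, with DMSO negative and nortriptyline positive controls on each plate. Hits: a control-normalized score above the plate's top-tenth-percentile nortriptyline wells, or one of a plate's three best wells. Final well concentrations are not given.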

System: primary human hepatic stellate cells (donor 1)
Experiment: percent Bodipy-positive cells; higher = more lipid droplet accumulation
Conditions: 48 h
Protocol: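 Primary lipid accumulation screen in primary human hepatic stellate cell myofibroblasts (donor 1, passage 8) in 384-well plates. 100 nL of library compound was pin-transferred into 30 µL medium in duplicate, and cells were treated for 48 h. The 'Scaled' score combines distance from plate baseline, toxicity and reproducibility penalties, and is normalised to nortriptyline (positive) and DMSO (negative) controls on each plate. A hit is defined as scaled >0.85 or among the top 3 wells per plate.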

[1] = library stock concentration: 10 mM
[2] = library stock concentration: 400 uM
[3] = library stock concentration: 2 mM
[4] = library stock concentration: 1 mM
[5] = library stock concentration: 3.33 mM
[6] = library stock concentration: 80 uM

CC(C)[C@H](CO)Nc1nc(Nc2ccc(C(=O)O)c(Cl)c2)c2ncn(C(C)C)c2n1 [Purvalanol B (NG95) (10 mM)]
percent Bodipy-positive cells [1]: 18.4 ± 6.5%

CC(C)[C@H](CO)Nc1nc(Nc2ccc(C(=O)O)c(Cl)c2)c2ncn(C(C)C)c2n1 [Purvalanol B]
percent Bodipy-positive cells [1]: 6.6 ± 1.6%

CC(C)[C@H](CO)Nc1nc(Nc2ccc(C(=O)O)c(Cl)c2)c2ncn(C(C)C)c2n1 [Purvalanol B (NG95) (0.4 mM)]
percent Bodipy-positive cells [2]: 20.9 ± 2.7%

CC(C)[C@H](CO)Nc1nc(Nc2ccc(C(=O)O)c(Cl)c2)c2ncn(C(C)C)c2n1 [Purvalanol B (NG95) (2 mM)]
percent Bodipy-positive cells [3]: 18 ± 0.57%

CCCCC/C=C\C=C\CCCCCCCCC(=O)O [10(E),12(Z)-Conjugated Linoleic Acid]
percent Bodipy-positive cells [4]: 15.5 ± 2.2%

COc1cc2ncnc(Nc3ccc(F)c(Cl)c3)c2cc1OCCCN1CCOCC1 [Gefitinib (ZD1839)]
percent Bodipy-positive cells [1]: 84.4 ± 3.9%

Cn1cc(C2=C(c3ccc(Cl)cc3Cl)C(=O)NC2=O)c2ccccc21
percent Bodipy-positive cells [1]: 75.1 ± 1.5%

CCCCCCCCCCCCCCCCCCCCCCCC(=O)NCCS(=O)(=O)O [N-Lignoceroyl Taurine]
percent Bodipy-positive cells [4]: 7.77 ± 1.1%

CC(C)OC(=O)OCOP(=O)(CO[C@H](C)Cn1cnc2c(N)ncnc21)OCOC(=O)OC(C)C [Tenofovir Disoproxil Fumarate]
percent Bodipy-positive cells [5]: 7.74 ± 4.3%
percent Bodipy-positive cells [1]: 25.4 ± 3.4%

CN(C)CCOc1cc(-c2cn[nH]c2)ccc1NC(=O)C1COc2ccccc2O1 (configuration not stated)
percent Bodipy-positive cells [1]: 85.8 ± 5.5%

Cl.O=C(NCCCCN1CCN(c2cccc(Cl)c2Cl)CC1)c1ccc2c(c1)Cc1ccccc1-2
percent Bodipy-positive cells [1]: 59.8 ± 4.9%

Nc1cc(Cl)c(NC2=NCCN2)c(Cl)c1 [p-Aminoclonidine hydrochloride]
percent Bodipy-positive cells [1]: 45.8 ± 13%

CC[C@@H](C)Nc1cc(C(=O)N[C@H]2C[C@H]3CC[C@@H](C2)N3c2ccc(C(=O)C3CC3)cn2)c(C)cc1C(N)=O
percent Bodipy-positive cells [5]: 83.4 ± 3.2%

O=C(O)c1ccccc1C(=O)Nc1ccc(S(=O)(=O)Nc2nccs2)cc1 [Phthalylsulfathiazole]
percent Bodipy-positive cells: 9.95 ± 7.4%
percent Bodipy-positive cells (library stock concentration: 5 mM): 15.82 ± 0.028%
percent Bodipy-positive cells [1]: 24 ± 8.7%

C[N+](C)(C)CC(=O)O [Betaine hydrochloride]
percent Bodipy-positive cells [1]: 56.7% and 38.2%
percent Bodipy-positive cells (library stock concentration: 13 mM): 22.8 ± 3.3%

CC(C)[C@H](NC(=O)CNC(=O)OC(C)(C)C)C(=O)N[C@H](C=O)C(C)C
percent Bodipy-positive cells (library stock concentration: 14 mM): 21.2 ± 7.8%

CCS(=O)(=O)N1CCC[C@@H]2CN3CCc4cc(OC)ccc4[C@@H]3C[C@@H]21
percent Bodipy-positive cells [1]: 7.36 ± 1.4%

Cc1cc(C)c(Nc2ccnc(Nc3ccc(C#N)cc3)n2)c(C)c1 [Dapivirine (TMC120)]
percent Bodipy-positive cells [1]: 89 ± 2.7%

CCCCC/C=C\C/C=C\CCCC/C=C\CCCC(=O)O [5(Z),11(Z),14(Z)-Eicosatrienoic Acid]
percent Bodipy-positive cells [4]: 10.6 ± 2.6%

CC[C@H](CO)Nc1nc(NCc2ccccc2)c2ncn(C(C)C)c2n1 [Roscovitine]
percent Bodipy-positive cells [5]: 20.9 ± 1%
percent Bodipy-positive cells [1]: 90.77 ± 0.42%

CC[C@H](CO)Nc1nc(NCc2ccccc2)c2ncn(C(C)C)c2n1 [R-roscovitine, CYC202, Seliciclib]
percent Bodipy-positive cells [6]: 7.95 ± 0.78%
percent Bodipy-positive cells [2]: 12 ± 4.1%
percent Bodipy-positive cells [3]: 19.7 ± 3.1%
percent Bodipy-positive cells [1]: 64.4 ± 12%

O=C(O)CCC/C=C\C[C@H]1C(=O)C=C[C@@H]1/C=C/[C@@H](O)CCc1ccccc1 [17-phenyl trinor Prostaglandin A2]
percent Bodipy-positive cells [4]: 11.8 ± 1.5%

CC(C)(C)OC(=O)N1CCC(OCc2nc(-c3ccncc3)no2)CC1
percent Bodipy-positive cells [4]: 8.15 ± 0.086%

CC(CCCCC(=O)Nc1ccc(C(F)(F)F)cc1)NCCc1cnc[nH]1 (configuration not stated) [HTMT dimaleate]
percent Bodipy-positive cells [1]: 36.7 ± 0.56%

Cc1ccc(NC(=O)c2cccc(C(C)(C)C#N)c2)cc1Nc1ccc2ncn(C)c(=O)c2c1
percent Bodipy-positive cells [6]: 9.77 ± 5.3%
percent Bodipy-positive cells [2]: 13.5 ± 7.3%
percent Bodipy-positive cells [3]: 6.67 ± 2.6%
percent Bodipy-positive cells [5]: 5.54 ± 0.081%
percent Bodipy-positive cells [1]: 11.7% and 8.19%

O=C(/C=C\n1cnc(-c2cc(C(F)(F)F)cc(C(F)(F)F)c2)n1)N1CC(F)(F)C1
percent Bodipy-positive cells [5]: 40 ± 6.3%
percent Bodipy-positive cells [1]: 56.5 ± 2.9%

CC/C=C\C/C=C\C/C=C\C/C=C\C/C=C\C/C=C\CCC(=O)O[C@H](COCCCCCCCCCCCCCCCC)COP(=O)([O-])OCC[N+](C)(C)C [Docosahexaenoyl PAF C-16]
percent Bodipy-positive cells [4]: 8.38 ± 4.2%

CC(C)(C)[N+]([O-])=Cc1ccc(S(=O)(=O)O)cc1S(=O)(=O)O
percent Bodipy-positive cells [5]: 4.9 ± 0.9%
percent Bodipy-positive cells [1]: 11.7% and 7.45%

CN1CCN(C(c2ccccc2)c2ccccc2)CC1 [Cyclizine]
percent Bodipy-positive cells (library stock concentration: 7.5 mM): 16.5 ± 4.3%
percent Bodipy-positive cells [1]: 49.7 ± 0.84%

CN1CCN(C(c2ccccc2)c2ccccc2)CC1 [Cyclizine 2HCl]
percent Bodipy-positive cells [5]: 18.7 ± 1.6%
percent Bodipy-positive cells [1]: 73.5 ± 5.8%

CN1CCN(C(c2ccccc2)c2ccccc2)CC1 [Cyclizine hydrochloride]
percent Bodipy-positive cells: 67.6 ± 8.6%

COC(=O)[C@@H]1CC2=CC(=O)CC[C@]2(C)[C@@]23O[C@@H]2C[C@@]2(C)[C@@H](CC[C@@]24CCC(=O)O4)[C@H]13 [Eplerenone]
percent Bodipy-positive cells [1]: 8.97 ± 2.4%

CC(C)OC(=O)C1=CN(C(=O)c2ccc(F)c(F)c2)CC(C)(C)c2c1[nH]c1ccccc21
percent Bodipy-positive cells [5]: 12 ± 2.5%
percent Bodipy-positive cells [1]: 38.8 ± 2.6%

Cc1ccc(F)c(NC(=O)Nc2ccc(-c3cccc4[nH]nc(N)c34)cc2)c1
percent Bodipy-positive cells [6]: 20.2 ± 5%
percent Bodipy-positive cells [2]: 17.9% and 24.6%
percent Bodipy-positive cells [3]: 34.8% and 46.1%
percent Bodipy-positive cells [1]: 47.8 ± 0.8%

Cc1ccc(F)c(NC(=O)Nc2ccc(-c3cccc4[nH]nc(N)c34)cc2)c1 [Linifanib (ABT-869)]
percent Bodipy-positive cells [5]: 19.3 ± 12%
percent Bodipy-positive cells [1]: 61.5 ± 11%

C[C@]12CC[C@@H]3c4ccc(OC(=O)c5ccccc5)cc4CC[C@H]3[C@@H]1CC[C@@H]2O [Estradiol Benzoate]
percent Bodipy-positive cells [5]: 7.7 ± 1.7%
percent Bodipy-positive cells [1]: 45.7 ± 6.5%

C[C@]12CC[C@@H]3c4ccc(OC(=O)c5ccccc5)cc4CC[C@H]3[C@@H]1CC[C@@H]2O [Estradiol benzoate]
percent Bodipy-positive cells (library stock concentration: 5.3 mM): 17.1 ± 3.5%

O=C(Nc1ccncc1)c1cc([N+](=O)[O-])ccc1Cl
percent Bodipy-positive cells [4]: 17.7 ± 9.5%
percent Bodipy-positive cells [5]: 13.2 ± 0.63%

Cc1cc(NC(=O)Nc2ccc3c(ccn3C)c2)sn1
percent Bodipy-positive cells [1]: 47.1 ± 1.3%

CCCCCCNC(=O)Nc1ccc(S(=O)(=O)Nc2ccc(CCNC[C@H](O)COc3ccc(O)cc3)cc2)cc1
percent Bodipy-positive cells [1]: 34 ± 1.7%

O=C1OC[C@H](Cc2cccc(O)c2)[C@H]1Cc1cccc(O)c1
percent Bodipy-positive cells [4]: 14.6 ± 3.9%

O=C(CCCN1CCN(c2ccccn2)CC1)c1ccc(F)cc1 [Azaperone]
percent Bodipy-positive cells: 12 ± 8.9%
percent Bodipy-positive cells [5]: 12.9 ± 8.1%
percent Bodipy-positive cells (library stock concentration: 6.1 mM): 13.3% and 21.3%
percent Bodipy-positive cells [1]: 41.5% and 35.3%

C[C@H](CCC(=O)O)[C@H]1CC[C@H]2[C@@H]3[C@@H](O)C[C@@H]4C[C@H](O)CC[C@]4(C)[C@H]3CC[C@]12C [Ursodiol]
percent Bodipy-positive cells [5]: 11 ± 2.4%
percent Bodipy-positive cells (library stock concentration: 5.1 mM): 18.2 ± 2.2%
percent Bodipy-positive cells [1]: 8.42% and 28.5%

C[C@H](CCC(=O)O)[C@H]1CC[C@H]2[C@@H]3[C@@H](O)C[C@@H]4C[C@H](O)CC[C@]4(C)[C@H]3CC[C@]12C [Urosiol]
percent Bodipy-positive cells: 2.85 ± 0.24%
